Assay results reported in article PMC5055493, “The PilZ domain of MrkH represents a novel DNA binding motif” (Protein & Cell, 2016).
These are yes or no findings as the source states them, for the method shown.

Protein sequences, listed by entry. Tags and fused reporters are not part of them. Residues count along the entry.
UniProt G3FT00, residues 1-228: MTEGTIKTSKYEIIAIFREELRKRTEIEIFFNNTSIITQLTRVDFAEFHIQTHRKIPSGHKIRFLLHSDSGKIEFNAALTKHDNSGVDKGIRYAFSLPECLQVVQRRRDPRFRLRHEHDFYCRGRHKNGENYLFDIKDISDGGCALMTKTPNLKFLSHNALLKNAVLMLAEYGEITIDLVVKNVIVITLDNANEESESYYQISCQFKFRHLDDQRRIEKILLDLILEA

Tests used:
[1] = molecular target: MrkH (Klebsiella pneumoniae) (UniProt G3FT00); experiment: SEC; size-exclusion chromatography of MrkH in the absence of c-di-GMP; absorbance at 280 nm; both purified
[2] = molecular target: MrkH (Klebsiella pneumoniae) (UniProt G3FT00); experiment: SEC; size-exclusion chromatography of the MrkH/c-di-GMP complex (in the presence of c-di-GMP); absorbance at 280 nm; both purified

Substance: MrkH (from UniProt G3FT00 1-228)
- binding [1]: no binding
- binding [2]: no binding
